# Values quoted from earlier work in US20090030504A1, “Medical devices comprising porous inorganic fibers for the release of therapeutic agents” (Boston Scientific Scimed, Inc., priority 2007, published 2009).
# Like-named read-outs stand apart in the source and are kept apart here.
structure (smiles),measurement,setting,value
CC(=O)O[C@H]1C(=O)[C@@]2(C)[C@H]([C@H](OC(=O)c3ccccc3)[C@]3(O)C[C@H](OC(=O)[C@H](O)[C@@H](NC(=O)c4ccccc4)c4ccccc4)C(C)=C1C3(C)C)[C@]1(OC(C)=O)CO[C@@H]1C[C@@H]2O [paclitaxel],solubility,in DMSO,~500 mg/mL
same,solubility,in methanol,~100 mg/mL
